At least one structure is not confirmed: it was looked up by name or label, or the drawing left a doubt.
System: SARS-CoV-2
Format: cell-based, human

## N#CC[C@H](C1CCCC1)n1cc(-c2ncnc3[nH]ccc23)cn1 [Ruxolitinib]
  viral replication, plaque forming assay: increase in the viral replication
